Laboratory results taken from PMC6684320.
These are yes or no findings as the source states them, for the method shown. Binding seen in cells or lysates may run through a third protein. Binding can be weak; no strength is given. Blank lines part the entries; values can stand above or below the molecule they belong to.

Amino acid sequences for entries named in this document (tags omitted). A change or cut given only in a name is not applied to a line headed by its entry.
UniProt P18206: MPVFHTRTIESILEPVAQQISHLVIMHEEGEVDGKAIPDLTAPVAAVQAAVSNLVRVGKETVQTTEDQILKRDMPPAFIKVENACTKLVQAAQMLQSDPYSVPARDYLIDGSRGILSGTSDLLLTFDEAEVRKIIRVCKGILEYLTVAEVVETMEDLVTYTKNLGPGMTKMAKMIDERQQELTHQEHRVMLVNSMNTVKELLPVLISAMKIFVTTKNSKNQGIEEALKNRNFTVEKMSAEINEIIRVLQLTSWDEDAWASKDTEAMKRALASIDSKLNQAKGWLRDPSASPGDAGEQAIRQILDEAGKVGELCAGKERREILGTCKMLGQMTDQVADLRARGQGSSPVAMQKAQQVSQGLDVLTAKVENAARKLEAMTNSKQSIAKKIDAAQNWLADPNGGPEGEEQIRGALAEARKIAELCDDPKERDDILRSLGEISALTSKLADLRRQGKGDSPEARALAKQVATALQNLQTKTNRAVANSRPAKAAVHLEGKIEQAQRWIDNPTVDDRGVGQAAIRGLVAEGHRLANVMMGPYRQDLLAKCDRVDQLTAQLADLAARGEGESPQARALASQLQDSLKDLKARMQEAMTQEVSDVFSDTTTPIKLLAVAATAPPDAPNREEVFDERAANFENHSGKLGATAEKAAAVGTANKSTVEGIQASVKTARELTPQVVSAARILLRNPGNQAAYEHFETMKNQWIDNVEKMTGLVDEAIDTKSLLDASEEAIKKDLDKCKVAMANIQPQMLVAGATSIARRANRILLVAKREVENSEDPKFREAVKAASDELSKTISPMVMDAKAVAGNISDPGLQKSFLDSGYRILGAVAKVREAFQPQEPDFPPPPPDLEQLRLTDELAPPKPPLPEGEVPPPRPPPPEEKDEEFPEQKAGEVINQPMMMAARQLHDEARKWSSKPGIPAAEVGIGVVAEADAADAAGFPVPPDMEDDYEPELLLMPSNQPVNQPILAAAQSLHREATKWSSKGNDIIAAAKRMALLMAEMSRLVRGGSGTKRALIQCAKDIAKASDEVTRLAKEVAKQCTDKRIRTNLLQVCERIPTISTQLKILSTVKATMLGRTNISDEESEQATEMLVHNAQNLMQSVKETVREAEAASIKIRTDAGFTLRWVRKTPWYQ

How the values were obtained:
[1] = target: T1, VE-cadherin (human (endogenous in HUVECs)) (UniProt P33151); assay: co-IP; HUVECs (siControl or siWNT5a) after scratch-wound; cells cross-linked with 0.5 mM DSP, 20 min RT; pellet of the lysate digested in SDS IP buffer, 10 min 100°C, diluted in lysis buffer (25 mM Tris/HCl pH 7.5, 1% NP-40, 1% deoxycholic acid, 150 mM NaCl); IP with 2 μg anti-vinculin (V9264) or anti-VE-cadherin (sc-9989) on protein G agarose, overnight 4°C; Western blot
T1 sequence: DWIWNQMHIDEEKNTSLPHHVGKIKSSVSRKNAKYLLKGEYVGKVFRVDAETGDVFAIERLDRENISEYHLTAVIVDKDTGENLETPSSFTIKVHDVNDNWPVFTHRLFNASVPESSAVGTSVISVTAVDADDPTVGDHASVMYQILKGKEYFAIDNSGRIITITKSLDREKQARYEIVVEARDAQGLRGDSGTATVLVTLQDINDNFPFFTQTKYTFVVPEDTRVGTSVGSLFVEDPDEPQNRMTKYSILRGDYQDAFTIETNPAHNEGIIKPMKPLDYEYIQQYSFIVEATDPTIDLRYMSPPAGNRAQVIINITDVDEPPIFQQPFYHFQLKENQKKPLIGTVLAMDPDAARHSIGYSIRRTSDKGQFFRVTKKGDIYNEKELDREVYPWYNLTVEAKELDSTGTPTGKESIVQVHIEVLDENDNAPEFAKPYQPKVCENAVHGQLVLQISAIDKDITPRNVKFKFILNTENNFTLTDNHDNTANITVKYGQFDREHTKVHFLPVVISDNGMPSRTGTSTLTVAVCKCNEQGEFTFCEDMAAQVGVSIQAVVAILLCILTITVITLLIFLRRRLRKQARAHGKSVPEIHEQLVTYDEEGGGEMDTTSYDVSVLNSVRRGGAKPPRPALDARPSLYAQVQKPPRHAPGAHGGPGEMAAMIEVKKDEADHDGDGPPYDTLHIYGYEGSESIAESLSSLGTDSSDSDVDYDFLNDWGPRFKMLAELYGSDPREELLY

[2] = target: T1, VE-cadherin (human (endogenous in HUVECs)); assay: proximity ligation; HUVECs (siControl or siWNT5a) after scratch-wound, fixed; Duolink In Situ Red Mouse/Rabbit kit with rabbit anti-vinculin (V4139) and mouse anti-VE-cadherin (sc-9989); PLA dots counted only at adherens junctions (VE-cadherin staining)
[3] = target: vinculin (human (endogenous in HUVECs)) (UniProt P18206); assay: co-IP; HUVECs (siControl or siWNT5a) after scratch-wound; cells cross-linked with 0.5 mM DSP, 20 min RT; pellet of the lysate digested in SDS IP buffer, 10 min 100°C, diluted in lysis buffer (25 mM Tris/HCl pH 7.5, 1% NP-40, 1% deoxycholic acid, 150 mM NaCl); IP with 2 μg anti-vinculin (V9264) or anti-VE-cadherin (sc-9989) on protein G agarose, overnight 4°C; Western blot

binding [1]: binds
binding [2]: binds
Molecule: vinculin (from UniProt P18206-2)

binding [3]: binds
B1: VE-cadherin (protein, UniProt P33151 48-784)
chain: T1 sequence
